PubChem BioAssay AID1508597, Cure First | 2020
Aim: 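Knock-downs altering ovarian cancer cell survival with or without PARP inhibitor rucaparib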 (primary screen). System: human ovarian carcinoma lines grown from tumours: OCI-P5x (papillary serous) and OCI-C5x (clear cell). Knock-down reagent: siRNA pool against human genes, 1.25 pmol siRNA per well. Timing: 72 h or 96 h, depending on the cell culture. Conditions: rucaparib 20 µM (about IC30) or vehicle, present until read-out. Rucaparib or vehicle: Rucaparib. Cell line: OCI-P5x (serous). Detection: 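Luminescent ATP-based viability assay read 72 or 96 h after transfection, depending on culture, given as normalised percent viability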. Direction: viability, normalised: higher = more viable cells remaining. Rule for the call: 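a well counts as a hit if its normalised viability is under 80 percent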. Calls: active = viability under 80%; inactive = viability 80% or more.
This is an unselected part of the about 2,100 reagents, in one setting of the screen. 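Calls flag viability under 80% in either arm, not effects specific to rucaparib; the reference for percent is not stated.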 Some reagents were tested in more than one well and are listed for each. Not given: the 100% reference.

BOK (BCL2 family apoptosis regulator BOK), technical replicate 1 showed viability, normalised (%) = 72.7; active. With BOK (BCL2 family apoptosis regulator BOK), technical replicate 2, the values are viability, normalised (%) = 70.4; active. With BOK (BCL2 family apoptosis regulator BOK), technical replicate 3 the deposit lists viability, normalised (%) = 53.8; active. SKIC2 (SKI2 subunit of superkiller complex), technical replicate 1 showed viability, normalised (%) = 47.1; active. SKIC2 (SKI2 subunit of superkiller complex), technical replicate 2 showed viability, normalised (%) = 52.4; active. SKIC2 (SKI2 subunit of superkiller complex), technical replicate 3 scored viability, normalised (%) = 50.7; active.

With DNM3 (dynamin 3), technical replicate 1, the values are viability, normalised (%) = 61.3; active. DNM3 (dynamin 3), technical replicate 2 scored viability, normalised (%) = 66.8; active. DNM3 (dynamin 3), technical replicate 3 gave viability, normalised (%) = 56.4; active. BUB3 (BUB3 mitotic checkpoint protein), technical replicate 1 showed viability, normalised (%) = 63.8; active. BUB3 (BUB3 mitotic checkpoint protein), technical replicate 2 gave viability, normalised (%) = 74.3; active. BUB3 (BUB3 mitotic checkpoint protein), technical replicate 3 scored viability, normalised (%) = 66.4; active.

AGO2 (argonaute RISC catalytic component 2), technical replicate 1 showed viability, normalised (%) = 70.9; active. With AGO2 (argonaute RISC catalytic component 2), technical replicate 2 the deposit lists viability, normalised (%) = 71.7; active. For AGO2 (argonaute RISC catalytic component 2), technical replicate 3, the values are viability, normalised (%) = 65.9; active. For CLDN20 (claudin 20), technical replicate 1, the values are viability, normalised (%) = 56.9; active. CLDN20 (claudin 20), technical replicate 2 gave viability, normalised (%) = 69.8; active. For CLDN20 (claudin 20), technical replicate 3, the entry reads viability, normalised (%) = 81.2; inactive.

RPS19BP1 (ribosomal protein S19 binding protein 1), technical replicate 1 gave viability, normalised (%) = 87.2; inactive. RPS19BP1 (ribosomal protein S19 binding protein 1), technical replicate 2 gave viability, normalised (%) = 116; inactive. RPS19BP1 (ribosomal protein S19 binding protein 1), technical replicate 3 showed viability, normalised (%) = 68.4; active. MPP3 (MAGUK p55 scaffold protein 3), technical replicate 1 scored viability, normalised (%) = 47.5; active. For MPP3 (MAGUK p55 scaffold protein 3), technical replicate 2, the values are viability, normalised (%) = 60.6; active. With MPP3 (MAGUK p55 scaffold protein 3), technical replicate 3, the entry reads viability, normalised (%) = 74.2; active.

For BCOR (BCL6 corepressor), technical replicate 1, the values are viability, normalised (%) = 71.8; active. BCOR (BCL6 corepressor), technical replicate 2 gave viability, normalised (%) = 84.6; inactive. For BCOR (BCL6 corepressor), technical replicate 3, the entry reads viability, normalised (%) = 90.7; inactive. With TYK2 (tyrosine kinase 2), technical replicate 1 the deposit lists viability, normalised (%) = 107; inactive. TYK2 (tyrosine kinase 2), technical replicate 2 showed viability, normalised (%) = 104; inactive. For TYK2 (tyrosine kinase 2), technical replicate 3 the deposit lists viability, normalised (%) = 90.5; inactive.

With UBE2N (ubiquitin conjugating enzyme E2 N), technical replicate 1 the deposit lists viability, normalised (%) = 73.9; active. UBE2N (ubiquitin conjugating enzyme E2 N), technical replicate 1 gave viability, normalised (%) = 51; active. For UBE2N (ubiquitin conjugating enzyme E2 N), technical replicate 2, the values are viability, normalised (%) = 53; active. UBE2N (ubiquitin conjugating enzyme E2 N), technical replicate 2 gave viability, normalised (%) = 69.8; active. With UBE2N (ubiquitin conjugating enzyme E2 N), technical replicate 3, the values are viability, normalised (%) = 87.7; inactive. For UBE2N (ubiquitin conjugating enzyme E2 N), technical replicate 3 the deposit lists viability, normalised (%) = 47.2; active.

Laid out differently: results already given
target	technical replicate	viability, normalised (%)	activity call
BOK (BCL2 family apoptosis regulator BOK)	3	53.8	active
SKIC2 (SKI2 subunit of superkiller complex)	1	47.1	active
